In the supplement of paper PMC10849652:
The other results are listed elsewhere or left out.

Chains of the proteins cited; added tags and fusions are not shown. Lines headed by an entry give the natural chain unless they say otherwise; changes in a name come on top.
UniProt P0C7M4: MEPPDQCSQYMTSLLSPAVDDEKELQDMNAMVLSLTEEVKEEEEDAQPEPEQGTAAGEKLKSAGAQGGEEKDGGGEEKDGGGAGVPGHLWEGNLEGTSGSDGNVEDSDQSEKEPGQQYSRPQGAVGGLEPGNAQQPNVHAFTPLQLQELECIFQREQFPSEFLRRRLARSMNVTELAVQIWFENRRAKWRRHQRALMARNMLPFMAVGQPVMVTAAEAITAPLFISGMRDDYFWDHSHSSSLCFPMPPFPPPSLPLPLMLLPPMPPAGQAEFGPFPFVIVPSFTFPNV
UniProt Q9HCK4: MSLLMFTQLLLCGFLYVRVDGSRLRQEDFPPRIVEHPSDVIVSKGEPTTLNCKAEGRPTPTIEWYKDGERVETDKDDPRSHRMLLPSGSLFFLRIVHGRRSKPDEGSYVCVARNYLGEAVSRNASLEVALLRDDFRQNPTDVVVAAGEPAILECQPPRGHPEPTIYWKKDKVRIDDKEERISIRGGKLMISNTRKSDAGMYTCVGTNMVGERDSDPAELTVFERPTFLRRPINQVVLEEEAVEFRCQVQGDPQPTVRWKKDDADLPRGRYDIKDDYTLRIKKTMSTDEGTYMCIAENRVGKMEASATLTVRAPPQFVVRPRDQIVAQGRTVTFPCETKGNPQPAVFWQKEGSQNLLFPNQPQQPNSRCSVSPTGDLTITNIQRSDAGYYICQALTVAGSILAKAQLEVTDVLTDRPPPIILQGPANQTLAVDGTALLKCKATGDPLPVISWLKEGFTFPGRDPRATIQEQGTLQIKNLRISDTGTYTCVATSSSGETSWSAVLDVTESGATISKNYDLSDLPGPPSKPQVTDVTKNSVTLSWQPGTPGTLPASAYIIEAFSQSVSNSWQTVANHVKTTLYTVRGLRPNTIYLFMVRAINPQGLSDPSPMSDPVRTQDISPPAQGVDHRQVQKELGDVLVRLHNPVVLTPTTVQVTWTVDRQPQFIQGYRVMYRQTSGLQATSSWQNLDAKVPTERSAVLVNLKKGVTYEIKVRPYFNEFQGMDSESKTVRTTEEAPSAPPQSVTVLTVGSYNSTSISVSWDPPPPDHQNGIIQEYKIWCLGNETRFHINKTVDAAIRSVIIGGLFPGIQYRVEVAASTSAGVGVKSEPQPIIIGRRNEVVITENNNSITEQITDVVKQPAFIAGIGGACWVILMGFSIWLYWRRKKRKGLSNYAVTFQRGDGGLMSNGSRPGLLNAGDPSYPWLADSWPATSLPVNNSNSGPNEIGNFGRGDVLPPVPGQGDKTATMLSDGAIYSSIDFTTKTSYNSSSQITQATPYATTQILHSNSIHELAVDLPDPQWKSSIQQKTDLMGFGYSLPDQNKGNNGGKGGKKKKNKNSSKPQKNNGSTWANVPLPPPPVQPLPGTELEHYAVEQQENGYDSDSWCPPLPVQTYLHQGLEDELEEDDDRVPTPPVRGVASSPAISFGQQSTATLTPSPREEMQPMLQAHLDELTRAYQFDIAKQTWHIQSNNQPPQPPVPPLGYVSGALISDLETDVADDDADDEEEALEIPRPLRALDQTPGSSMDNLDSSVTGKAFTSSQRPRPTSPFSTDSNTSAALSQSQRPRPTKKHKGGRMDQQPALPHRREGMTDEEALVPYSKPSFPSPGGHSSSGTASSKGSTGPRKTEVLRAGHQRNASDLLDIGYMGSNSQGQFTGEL
UniProt Q8NCN4: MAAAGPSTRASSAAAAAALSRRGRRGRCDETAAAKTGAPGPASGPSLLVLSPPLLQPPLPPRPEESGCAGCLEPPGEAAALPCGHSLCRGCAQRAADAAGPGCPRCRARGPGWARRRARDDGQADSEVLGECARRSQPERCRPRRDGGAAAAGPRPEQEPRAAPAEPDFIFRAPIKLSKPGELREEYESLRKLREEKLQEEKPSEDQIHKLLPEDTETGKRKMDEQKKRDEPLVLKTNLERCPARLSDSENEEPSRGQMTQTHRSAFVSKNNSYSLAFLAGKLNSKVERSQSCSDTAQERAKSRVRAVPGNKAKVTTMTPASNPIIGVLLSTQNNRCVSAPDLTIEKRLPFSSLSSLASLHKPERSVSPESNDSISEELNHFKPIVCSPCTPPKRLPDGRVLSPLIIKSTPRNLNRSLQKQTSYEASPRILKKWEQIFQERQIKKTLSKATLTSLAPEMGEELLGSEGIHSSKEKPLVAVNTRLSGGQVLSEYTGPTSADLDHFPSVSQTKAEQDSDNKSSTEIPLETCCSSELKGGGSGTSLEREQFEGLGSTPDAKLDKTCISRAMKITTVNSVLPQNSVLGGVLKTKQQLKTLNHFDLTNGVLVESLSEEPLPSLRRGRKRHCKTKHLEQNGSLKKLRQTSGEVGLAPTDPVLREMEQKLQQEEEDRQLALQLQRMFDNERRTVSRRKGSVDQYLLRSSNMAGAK
UniProt Q9HAU8: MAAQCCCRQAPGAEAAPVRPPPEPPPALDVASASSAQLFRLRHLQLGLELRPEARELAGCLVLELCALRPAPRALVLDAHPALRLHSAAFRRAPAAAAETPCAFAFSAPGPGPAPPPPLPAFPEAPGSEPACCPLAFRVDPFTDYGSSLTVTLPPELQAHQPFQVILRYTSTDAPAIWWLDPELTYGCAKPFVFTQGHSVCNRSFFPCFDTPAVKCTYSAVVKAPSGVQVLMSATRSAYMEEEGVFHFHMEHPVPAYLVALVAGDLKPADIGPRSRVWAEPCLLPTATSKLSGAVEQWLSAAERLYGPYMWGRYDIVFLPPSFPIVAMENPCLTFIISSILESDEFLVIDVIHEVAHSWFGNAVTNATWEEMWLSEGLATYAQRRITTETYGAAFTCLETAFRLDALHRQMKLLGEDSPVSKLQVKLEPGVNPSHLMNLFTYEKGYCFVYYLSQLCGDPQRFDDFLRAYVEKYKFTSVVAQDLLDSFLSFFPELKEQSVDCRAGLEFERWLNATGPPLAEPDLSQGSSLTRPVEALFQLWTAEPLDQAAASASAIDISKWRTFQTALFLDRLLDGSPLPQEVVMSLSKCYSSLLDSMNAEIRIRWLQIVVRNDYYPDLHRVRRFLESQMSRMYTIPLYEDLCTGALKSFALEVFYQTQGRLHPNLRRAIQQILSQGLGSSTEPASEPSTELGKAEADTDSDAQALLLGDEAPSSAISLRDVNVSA
UniProt P60602: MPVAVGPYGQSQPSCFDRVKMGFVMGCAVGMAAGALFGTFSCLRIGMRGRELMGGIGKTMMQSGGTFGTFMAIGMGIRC
UniProt Q92834: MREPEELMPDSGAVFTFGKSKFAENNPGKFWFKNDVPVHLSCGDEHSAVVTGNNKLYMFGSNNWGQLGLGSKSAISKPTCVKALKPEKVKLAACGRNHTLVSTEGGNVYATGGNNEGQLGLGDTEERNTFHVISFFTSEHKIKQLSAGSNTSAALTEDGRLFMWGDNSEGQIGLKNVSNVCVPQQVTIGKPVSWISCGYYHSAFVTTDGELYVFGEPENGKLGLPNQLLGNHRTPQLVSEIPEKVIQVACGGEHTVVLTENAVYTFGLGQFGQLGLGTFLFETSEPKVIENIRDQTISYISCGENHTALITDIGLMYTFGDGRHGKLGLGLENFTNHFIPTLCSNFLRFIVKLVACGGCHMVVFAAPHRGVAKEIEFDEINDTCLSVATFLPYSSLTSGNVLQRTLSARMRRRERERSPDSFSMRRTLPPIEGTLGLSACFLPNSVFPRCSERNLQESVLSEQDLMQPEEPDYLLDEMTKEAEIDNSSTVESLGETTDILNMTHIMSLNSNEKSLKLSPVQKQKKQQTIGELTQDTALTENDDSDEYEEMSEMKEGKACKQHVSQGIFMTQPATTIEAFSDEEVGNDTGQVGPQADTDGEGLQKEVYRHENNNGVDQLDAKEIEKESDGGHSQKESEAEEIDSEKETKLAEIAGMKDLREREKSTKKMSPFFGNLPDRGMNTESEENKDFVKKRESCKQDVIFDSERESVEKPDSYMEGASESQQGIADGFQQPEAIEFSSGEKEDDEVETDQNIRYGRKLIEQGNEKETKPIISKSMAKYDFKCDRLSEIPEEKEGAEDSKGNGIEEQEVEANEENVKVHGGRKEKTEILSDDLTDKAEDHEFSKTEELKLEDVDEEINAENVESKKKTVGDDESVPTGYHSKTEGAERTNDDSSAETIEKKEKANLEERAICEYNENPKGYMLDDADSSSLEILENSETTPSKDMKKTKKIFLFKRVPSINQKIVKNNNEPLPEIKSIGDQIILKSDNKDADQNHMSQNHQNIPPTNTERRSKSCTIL
UniProt O43567: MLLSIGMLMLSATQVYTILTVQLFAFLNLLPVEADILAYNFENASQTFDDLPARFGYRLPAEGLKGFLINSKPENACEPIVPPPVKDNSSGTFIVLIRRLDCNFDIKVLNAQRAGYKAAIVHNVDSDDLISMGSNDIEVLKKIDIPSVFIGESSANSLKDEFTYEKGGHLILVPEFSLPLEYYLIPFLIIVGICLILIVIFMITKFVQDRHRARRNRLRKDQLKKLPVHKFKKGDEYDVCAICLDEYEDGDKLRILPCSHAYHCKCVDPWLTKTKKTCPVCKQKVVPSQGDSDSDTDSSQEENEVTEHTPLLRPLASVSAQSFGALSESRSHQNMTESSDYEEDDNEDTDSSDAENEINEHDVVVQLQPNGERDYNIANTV
UniProt Q9NVW2: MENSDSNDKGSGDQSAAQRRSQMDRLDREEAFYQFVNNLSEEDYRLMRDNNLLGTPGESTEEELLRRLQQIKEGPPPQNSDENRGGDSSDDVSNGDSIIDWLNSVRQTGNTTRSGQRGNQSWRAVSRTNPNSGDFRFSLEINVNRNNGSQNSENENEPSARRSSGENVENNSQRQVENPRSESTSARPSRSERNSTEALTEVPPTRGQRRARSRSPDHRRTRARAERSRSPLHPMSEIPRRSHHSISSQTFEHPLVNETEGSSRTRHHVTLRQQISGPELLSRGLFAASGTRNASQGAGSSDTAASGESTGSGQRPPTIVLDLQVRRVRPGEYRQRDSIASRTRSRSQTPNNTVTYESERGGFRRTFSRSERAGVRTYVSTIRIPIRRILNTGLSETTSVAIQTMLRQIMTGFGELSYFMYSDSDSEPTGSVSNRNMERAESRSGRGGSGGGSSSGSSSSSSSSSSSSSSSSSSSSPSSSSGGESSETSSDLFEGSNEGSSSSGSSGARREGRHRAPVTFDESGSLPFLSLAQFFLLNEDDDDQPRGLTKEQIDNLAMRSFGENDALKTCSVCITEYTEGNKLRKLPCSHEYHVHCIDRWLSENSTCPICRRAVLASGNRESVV
UniProt P34096: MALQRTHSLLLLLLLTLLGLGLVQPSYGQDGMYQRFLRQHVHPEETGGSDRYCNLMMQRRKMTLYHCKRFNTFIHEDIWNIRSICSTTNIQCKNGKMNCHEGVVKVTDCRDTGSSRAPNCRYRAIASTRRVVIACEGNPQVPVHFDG
UniProt Q99496: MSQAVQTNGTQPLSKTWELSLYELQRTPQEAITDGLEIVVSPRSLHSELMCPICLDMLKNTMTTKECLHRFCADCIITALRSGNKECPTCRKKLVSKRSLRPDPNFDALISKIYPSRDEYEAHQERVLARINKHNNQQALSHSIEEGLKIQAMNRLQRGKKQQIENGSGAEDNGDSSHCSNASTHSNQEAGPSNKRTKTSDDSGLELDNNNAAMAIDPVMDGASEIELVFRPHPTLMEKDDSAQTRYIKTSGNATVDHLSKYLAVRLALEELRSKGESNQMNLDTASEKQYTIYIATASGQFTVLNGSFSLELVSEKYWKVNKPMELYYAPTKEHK
UniProt Q9Y4L5, whole entry, looked up: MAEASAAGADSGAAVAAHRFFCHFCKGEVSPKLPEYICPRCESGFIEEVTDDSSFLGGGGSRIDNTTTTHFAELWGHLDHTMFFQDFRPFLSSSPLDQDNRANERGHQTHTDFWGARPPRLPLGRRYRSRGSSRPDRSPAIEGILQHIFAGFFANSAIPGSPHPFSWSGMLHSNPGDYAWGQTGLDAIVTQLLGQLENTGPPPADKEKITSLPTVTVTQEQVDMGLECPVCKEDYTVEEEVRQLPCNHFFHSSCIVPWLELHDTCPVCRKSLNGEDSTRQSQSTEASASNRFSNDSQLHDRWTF
UniProt Q96E14: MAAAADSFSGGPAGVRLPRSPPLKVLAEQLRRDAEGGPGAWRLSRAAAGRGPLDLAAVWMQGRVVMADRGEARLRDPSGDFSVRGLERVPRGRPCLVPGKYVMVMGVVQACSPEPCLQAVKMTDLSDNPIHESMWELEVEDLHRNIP
UniProt Q8WVD3: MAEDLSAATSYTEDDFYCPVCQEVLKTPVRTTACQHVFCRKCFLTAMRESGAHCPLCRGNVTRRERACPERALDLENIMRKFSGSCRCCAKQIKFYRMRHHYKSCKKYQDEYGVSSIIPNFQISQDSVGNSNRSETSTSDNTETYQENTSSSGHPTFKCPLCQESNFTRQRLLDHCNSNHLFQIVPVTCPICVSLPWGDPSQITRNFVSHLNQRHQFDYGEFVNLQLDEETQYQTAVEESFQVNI
UniProt Q99942: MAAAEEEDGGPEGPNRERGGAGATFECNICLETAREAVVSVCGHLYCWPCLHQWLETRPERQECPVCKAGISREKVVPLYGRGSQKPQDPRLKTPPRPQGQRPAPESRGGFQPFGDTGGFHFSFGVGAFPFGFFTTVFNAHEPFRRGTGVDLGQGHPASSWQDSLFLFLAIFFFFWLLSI

Legend:
Test in all cases: log2 fold change, soluble protein after heating vs DMSO (PISA); higher = thermal stabilisation; K562 lysate, 10 uM; active = over 0.2 and 3.5 SD of the protein, either way, in both replicates (recomputed)
[1] = compound: CC(=O)c1cnc2ccc(-c3cc(Cl)c(O)c(Cl)c3)nc2c1N[C@H]1CC[C@H](CN(C)C)CC1
Procedure, shortened: (§1)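 Log-two fold change in thermal stability relative to solvent controls is reported from duplicates. For each sample, crude K562 extract from dounce-homogenised pellets in PBS pH 7.4 with 1 mM MgCl2, at 1 mg/mL protein, was treated with 10 μM compound for 30 min. Aliquots heated for 3 min across 48°C-58°C were pooled, brought to 0.5% NP-40 at 4°C and cleared at 21,000xg for 90 min. The supernatant was quantified by TMTpro 16plex LC-MS/MS with channel sums equalised.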

ralimetinib = compound: CC(C)(C)Cn1c(N)nc2ccc(-c3[nH]c(C(C)(C)C)nc3-c3ccc(F)cc3)nc21 [ralimetinib]
Procedure, shortened: as §1

[2] = compound: CC(C)(O)CC(=O)NCCn1ccc2ncnc(Nc3ccc(Oc4cccc(C(F)(F)F)c4)c(Cl)c3)c21
Procedure, shortened: as §1

[3] = compound: CC(C)C1=C2N=C(C=C(N2N=C1)NCC3=CC=CC=C3)NCCCCCCN
Procedure, shortened: as §1

[4] = compound: CC1=C(C2=C(C=C1)C(=O)C3=CC=CC=C3N2CCCN)C
Procedure, shortened: as §1

[5] = compound: CC1=C(C=C(C=C1)NC(=O)C2=CC(=CC=C2)N(C)C)NC(=O)C3=CC=C(C=C3)O
Procedure, shortened: as §1

[6] = compound: CC1=CC=C(C=C1)SC2=C3C=C(SC3=CN=C2)C(=O)N
Procedure, shortened: as §1

[7] = compound: CC1=C(C=C(C=C1)NC(=O)C2=CC(=CC=C2)C(C)(C)C#N)NC3=CC4=C(C=C3)N=CN(C4=O)C
Procedure, shortened: as §1

[8] = compound: CC1=C(C(CC(=O)N1)C2=CC=C(C=C2)C(F)(F)F)C(=O)NC3=C(C=C4C(=C3)C=NN4)F
Procedure, shortened: as §1

ibrutinib = compound: C=CC(=O)N1CCC[C@@H](n2nc(-c3ccc(Oc4ccccc4)cc3)c3c(N)ncnc32)C1 [ibrutinib]
Procedure, shortened: as §1

Measured: log2 fold change

RHOXF2B (UniProt P0C7M4)
inactive: [1] -0.05 | ralimetinib -0.016 | [2] -0.052 | [3] 0.221 | [4] -0.117 | [5] -0.053 | [6] 0.107

ROBO2 isoform 3 (UniProt Q9HCK4)
inactive: [1] -0.015 | ralimetinib 0.103 | [2] -0.287 | [3] -0.045 | [7] 0.022 | [5] 0.177 | [6] -0.053

RNF41 (UniProt Q9H4P4)
inactive: ralimetinib -0.091 | [2] -0.066 | [3] -0.158 | [8] -0.103 | [4] 0.103 | [7] -0.023 | [5] -0.032

RPL32 (UniProt D3YTI8)
inactive: [1] 0.036 | [3] 0.002 | [4] -0.003 | [6] -0.133

RPL15, A0A2R8Y738
inactive: ibrutinib -0.103 | [1] 0.102 | [3] -0.052 | [8] 0 | [6] -0.169

RNF169 (UniProt Q8NCN4)
inactive: ibrutinib -0.044 | ralimetinib -0.052 | [2] -0.19 | [3] 0.103 | [4] -0.054 | [7] -0.035 | [5] -0.245

RNPEPL1 (UniProt Q9HAU8)
inactive: [1] -0.116 | ralimetinib 0.019 | [2] 0.005 | [3] -0.017 | [8] 0.141 | [4] -0.017 | [7] -0.004 | [5] 0.039 | [6] -0.049

RNF187 (UniProt Q5TA31)
inactive: ibrutinib 0.05 | ralimetinib -0.031 | [2] -0.054 | [3] 0.055 | [8] -0.024 | [4] -0.035 | [7] 0.025 | [5] -0.039

ROMO1 (UniProt P60602)
inactive: [1] 0.027 | ralimetinib 0.225 | [2] -0.007 | [3] -0.066 | [8] -0.008 | [4] -0.033 | [7] 0.032 | [5] 0.199 | [6] 0.075

RHOU (UniProt Q7L0Q8)
inactive: [1] -0.007 | ralimetinib 0.057 | [2] 0.009 | [3] 0.066 | [8] 0.012 | [4] 0.015 | [7] -0.003 | [5] 0.019 | [6] 0.045

RPGR (UniProt Q92834)
inactive: ibrutinib 0.046 | [7] -0.048

RNF185 (UniProt Q96GF1)
inactive: ibrutinib 0.157 | [1] 0.036 | [3] -0.026 | [8] 0.04 | [6] -0.007

RNF167 (UniProt Q9H6Y7)
inactive: ibrutinib 0.033 | [1] -0.011 | [4] -0.071 | [7] -0.051 | [6] 0.112

RNF4 (UniProt P78317)
inactive: ibrutinib -0.073 | ralimetinib -0.004 | [2] -0.172 | [8] 0.059 | [7] 0.154 | [5] -0.068

RPL10, A0A087WV22
inactive: ibrutinib 0.982 | ralimetinib 0.049 | [2] -0.015 | [3] 0.691 | [4] 0.276 | [7] -0.187 | [5] 0.029

RNFT1 (UniProt Q5M7Z0)
inactive: ralimetinib 0.001 | [2] -0.01 | [3] -0.099 | [8] -0.058 | [4] -0.141 | [5] -0.02

RNASEH2B, A0A1B0GUE7
inactive: [1] -0.017 | [8] -0.12 | [6] 0.09

RNF13 (UniProt O43567)
inactive: [3] 0.052

RIOX1 (UniProt Q9H6W3)
inactive: [1] 0 | ralimetinib 0.112 | [2] -0.116 | [3] -0.083 | [8] -0.236 | [4] -0.042 | [7] 0.033 | [5] -0.072 | [6] 0.11

RIMKLB (UniProt Q9ULI2)
inactive: ralimetinib 0.221 | [2] 0.368 | [5] 0.01

RLIM (UniProt Q9NVW2)
inactive: ibrutinib 0.014 | [7] 0.465

RNF139 (UniProt Q8WU17)
inactive: [3] 0.275 | [7] 0.011

RNASE4 (UniProt P34096)
inactive: [1] -0.03 | ralimetinib 0.045 | [2] -0.072 | [3] -0.104 | [8] 0 | [4] -0.018 | [7] 0.003 | [5] 0.076 | [6] -0.017

RHPN2 (UniProt Q8IUC4)
inactive: [1] 0.032 | ralimetinib 0.038 | [2] 0.185 | [3] 0.023 | [8] -0.051 | [7] 0.085 | [5] -0.292 | [6] 0.027

RNF2 (UniProt Q99496)
inactive: ralimetinib -0.053 | [2] -0.01 | [3] 0.017 | [8] 0.009 | [4] -0.081 | [7] -0.048 | [5] 0.024

RNF24 isoform 2 (UniProt Q9Y225)
inactive: ibrutinib -0.051 | [3] 0.33 | [8] -0.026 | [7] 0.092

RNF115 (UniProt Q9Y4L5)
inactive: [8] 0.139 | [7] 0.039

RPL22L1 (UniProt Q6P5R6)
inactive: ibrutinib -0.086 | ralimetinib -0.396 | [2] -0.334 | [4] -1.16 | [5] -0.199

Reprinted from above (2 entries):
RNF115 (UniProt Q9Y4L5)
inactive: [8] 0.139 | [7] 0.039

RPL22L1 (UniProt Q6P5R6)
inactive: ibrutinib -0.086 | ralimetinib -0.396 | [2] -0.334 | [4] -1.16 | [5] -0.199

(continued)

RMI2 (UniProt Q96E14)
inactive: ralimetinib -0.061 | [2] 0.007 | [3] -0.032 | [4] 0.021 | [7] 0.011 | [5] 0.039

RNF10 isoform 2 (UniProt Q8N5U6)
inactive: [1] -0.097 | [3] 0.029 | [4] -0.076 | [7] 0.095 | [6] 0.195

RHOBTB3 (UniProt O94955)
inactive: [3] 0.029 | [8] 0.159

RNF138 (UniProt Q8WVD3)
inactive: ibrutinib -0.016 | ralimetinib -0.008 | [2] 0.059 | [8] 0.007 | [4] 0.036 | [7] -0.031 | [5] -0.002

RNF5 (UniProt Q99942)
inactive: ibrutinib 0.037 | ralimetinib 0.065 | [2] 0.047 | [3] -0.013 | [8] -0.004 | [4] 0.005 | [7] 0.073 | [5] 0.006

RNPC3 (UniProt Q96LT9)
inactive: [1] 0.017 | ralimetinib 0.02 | [2] -0.029 | [3] -0.122 | [8] -0.027 | [4] -0.015 | [7] -0.028 | [5] 0.054 | [6] -0.003

RNF130 (UniProt Q86XS8)
inactive: ibrutinib 0.014 | [4] -0.185 | [7] 0.225
